# Laboratory results from the supplement of paper PMC8728848.
# The other results are listed elsewhere or left out.
# B1: Clec18Av1 (Homo sapiens), A5D8T8 (protein)
# chain: MLHPETSPGRGHLLAVLLALLGTAWAEVWPPQLQEQAPMAGALNRKESFLLLSLHNRLRSWVQPPAADMRRLDWSDSLAQLAQARAALCGTPTPSLASGLWRTLQVGWNMQLLPAGLVSFVEVVSLWFAEGQRYSHAAGECARNATCTHYTQLVWATSSQLGCGRHLCSAGQAAIEAFVCAYSPRGNWEVNGKTIVPYKKGAWCSLCTASVSGCFKAWDHAGGLCEVPRNPCRMSCQNHGRLNISTCHCHCPPGYTGRYCQVRCSLQCVHGRFREEECSCVCDIGYGGAQCATKVHFPFHTCDLRIDGDCFMVSSEADTYYRARMKCQRKGGVLAQIKSQKVQDILAFYLGRLETTNEVIDSDFETRNFWIGLTYKTAKDSFRWATGEHQAFTSFAFGQPDNHGFGNCVELQASAAFNWNDQRCKTRNRYICQFAQEHISRWGPGS
# Key:
# Test in all cases: glycan array binding signal (z-score within array); higher = stronger binding
# Conditions in all cases: glycan notation: IUPAC condensed, linker removed
# [1] = biological target: Fuc(a1-2)Gal
# Outline: (§1)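 Arrays were curated from the Consortium for Functional Glycomics database, 3228 in total, and kept only where the protein sequence was available. Binding is expressed as a within-array Z-score. This score was averaged across arrays of the same protein sequence at different concentrations or buffers and across linkers, and negative values can be read as non-binding.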
# [2] = biological target: Fuc(a1-2)Gal(b1-3)GalNAc
# Outline: as §1
# [3] = biological target: Fuc(a1-2)Gal(b1-3)GalNAc(a1-3)[Fuc(a1-2)]Gal(b1-4)Glc
# Outline: as §1
# [4] = biological target: Fuc(a1-2)Gal(b1-3)GalNAc(a1-3)[Fuc(a1-2)]Gal(b1-4)GlcNAc
# Outline: as §1
# [5] = biological target: Fuc(a1-2)Gal(b1-3)GalNAc(b1-3)Gal
# Outline: as §1
# [6] = biological target: Fuc(a1-2)Gal(b1-3)GalNAc(b1-3)Gal(a1-4)Gal(b1-4)Glc
# Outline: as §1
# [7] = biological target: Fuc(a1-2)Gal(b1-3)GalNAc(b1-4)[Neu5Ac(a2-3)]Gal(b1-4)Glc
# Outline: as §1
# [8] = biological target: Fuc(a1-2)Gal(b1-3)GlcNAc
# Outline: as §1
# [9] = biological target: Fuc(a1-2)Gal(b1-3)GlcNAc(b1-2)Man(a1-3)[Fuc(a1-2)Gal(b1-3)GlcNAc(b1-2)Man(a1-6)]Man(b1-4)GlcNAc(b1-4)GlcNAc
# Outline: as §1
# [10] = biological target: Fuc(a1-2)Gal(b1-3)GlcNAc(b1-2)Man(a1-3)[Fuc(a1-2)Gal(b1-3)GlcNAc(b1-2)Man(a1-6)]Man(b1-4)GlcNAc(b1-4)[Fuc(a1-6)]GlcNAc
# Outline: as §1
# [11] = biological target: Fuc(a1-2)Gal(b1-3)GlcNAc(b1-3)Gal(b1-4)Glc
# Outline: as §1
# [12] = biological target: Fuc(a1-2)Gal(b1-3)GlcNAc(b1-3)GalNAc
# Outline: as §1
# [13] = biological target: Fuc(a1-2)Gal(b1-3)GlcNAc(b1-3)[Fuc(a1-2)Gal(b1-3)GlcNAc(b1-6)]GalNAc
# Outline: as §1
# [14] = biological target: Fuc(a1-2)Gal(b1-3)GlcNAc(b1-3)[Gal(b1-4)GlcNAc(b1-6)]Gal(b1-4)Glc
# Outline: as §1
# [15] = biological target: Fuc(a1-2)Gal(b1-3)GlcNAc(b1-3)[Neu5Ac(a2-6)Gal(b1-4)GlcNAc(b1-6)]Gal(b1-4)Glc
# Outline: as §1
# [16] = biological target: Fuc(a1-2)Gal(b1-3)GlcNAc6S
# Outline: as §1
# [17] = biological target: Fuc(a1-2)Gal(b1-3)[Fuc(a1-4)]GlcNAc
# Outline: as §1
# [18] = biological target: Fuc(a1-2)Gal(b1-3)[Fuc(a1-4)]GlcNAc(b1-2)Man(a1-3)[Fuc(a1-2)Gal(b1-3)[Fuc(a1-4)]GlcNAc(b1-2)Man(a1-3)]Man(b1-4)GlcNAc(b1-4)GlcNAc
# Outline: as §1
# [19] = biological target: Fuc(a1-2)Gal(b1-3)[Fuc(a1-4)]GlcNAc(b1-2)Man(a1-3)[Fuc(a1-2)Gal(b1-3)[Fuc(a1-4)]GlcNAc(b1-2)Man(a1-6)]Man(b1-4)GlcNAc(b1-4)[Fuc(a1-6)]GlcNAc(b1-4)[Fuc(a1-6)]GlcNAc
# Outline: as §1
# [20] = biological target: Fuc(a1-2)Gal(b1-3)[Fuc(a1-4)]GlcNAc(b1-3)[Fuc(a1-3)[Gal(b1-4)]GlcNAc(b1-6)]Gal(b1-4)Glc
# Outline: as §1
# [21] = biological target: Fuc(a1-2)Gal(b1-3)[Fuc(a1-4)]GlcNAc(b1-3)[Gal(b1-4)GlcNAc(b1-6)]Gal(b1-4)Glc
# Outline: as §1
# [22] = biological target: Fuc(a1-2)Gal(b1-4)Glc
# Outline: as §1
# [23] = biological target: Fuc(a1-2)Gal(b1-4)Glc6S
# Outline: as §1
# [24] = biological target: Fuc(a1-2)Gal(b1-4)GlcNAc
# Outline: as §1
# [25] = biological target: Fuc(a1-2)Gal(b1-4)GlcNAc(b1-2)Man
# Outline: as §1
# [26] = biological target: Fuc(a1-2)Gal(b1-4)GlcNAc(b1-2)Man(a1-3)[Fuc(a1-2)Gal(b1-4)GlcNAc(b1-2)Man(a1-6)]Man(b1-4)GlcNAc(b1-4)GlcNAc
# Outline: as §1
# [27] = biological target: Fuc(a1-2)Gal(b1-4)GlcNAc(b1-2)Man(a1-3)[Fuc(a1-2)Gal(b1-4)GlcNAc(b1-2)Man(a1-6)]Man(b1-4)GlcNAc(b1-4)[Fuc(a1-6)]GlcNAc
# Outline: as §1
# [28] = biological target: Fuc(a1-2)Gal(b1-4)GlcNAc(b1-2)[Fuc(a1-2)Gal(b1-4)GlcNAc(b1-4)]Man(a1-3)[Fuc(a1-2)Gal(b1-4)GlcNAc(b1-2)Man(a1-6)]Man(b1-4)GlcNAc(b1-4)GlcNAc
# Outline: as §1
# [29] = biological target: Fuc(a1-2)Gal(b1-4)GlcNAc(b1-3)Gal(b1-4)GlcNAc
# Outline: as §1
# [30] = biological target: Fuc(a1-2)Gal(b1-4)GlcNAc(b1-3)Gal(b1-4)GlcNAc(b1-2)Man(a1-3)[Fuc(a1-2)Gal(b1-4)GlcNAc(b1-3)Gal(b1-4)GlcNAc(b1-2)Man(a1-6)]Man(b1-4)GlcNAc(b1-4)GlcNAc
# Outline: as §1
binder,measurement,setting,value
B1,glycan array binding signal (z-score),[1],-0.567
same,glycan array binding signal (z-score),[2],0.22
same,glycan array binding signal (z-score),[3],-0.116
same,glycan array binding signal (z-score),[4],-0.489
same,glycan array binding signal (z-score),[5],-0.071
same,glycan array binding signal (z-score),[6],-0.849
same,glycan array binding signal (z-score),[7],-0.605
same,glycan array binding signal (z-score),[8],-0.371
same,glycan array binding signal (z-score),[9],0.583
same,glycan array binding signal (z-score),[10],-0.64
same,glycan array binding signal (z-score),[11],-0.818
same,glycan array binding signal (z-score),[12],-0.519
same,glycan array binding signal (z-score),[13],4.48
same,glycan array binding signal (z-score),[14],2.06
same,glycan array binding signal (z-score),[15],-0.787
same,glycan array binding signal (z-score),[16],-0.214
same,glycan array binding signal (z-score),[17],-0.825
same,glycan array binding signal (z-score),[18],0.851
same,glycan array binding signal (z-score),[19],-0.318
same,glycan array binding signal (z-score),[20],0.626
same,glycan array binding signal (z-score),[21],-0.5
same,glycan array binding signal (z-score),[22],-0.781
same,glycan array binding signal (z-score),[23],-0.03
same,glycan array binding signal (z-score),[24],-0.697
same,glycan array binding signal (z-score),[25],0.267
same,glycan array binding signal (z-score),[26],2.64
same,glycan array binding signal (z-score),[27],-0.272
same,glycan array binding signal (z-score),[28],0.027
same,glycan array binding signal (z-score),[29],-0.855
same,glycan array binding signal (z-score),[30],-0.205
